{"source": "PubChem BioAssay AID248", "about": "(DTP/NCI, 2004)", "system": "L1210 leukemia ip in BDF1 mice, survival T/C", "assay": "NCI In Vivo Anticancer Drug Screen. Data for tumor model L1210 Leukemia (intraperitoneal) in B6D2F1 (BDF1) mice", "conditions": "T/C endpoint: mean survival time, higher T/C = longer survival", "key": {"[1]": {"conditions": "dose: 200.0 mg/kg/injection, schedule: Q04DX003 (ip), vehicle: saline"}, "[2]": {"conditions": "dose: 400.0 mg/kg/injection, schedule: Q04DX003 (ip), vehicle: saline"}, "[3]": {"conditions": "dose: 400.0 mg/kg/injection, schedule: Q01DX001 (ip), vehicle: carboxymethylcellulose (CMC)"}, "[4]": {"conditions": "dose: 400.0 mg/kg/injection, schedule: Q01DX009 (ip), vehicle: Klucel (hydroxypropylcellulose) (HPC)"}, "[5]": {"conditions": "dose: 400.0 mg/kg/injection, schedule: Q04DX003 (ip), vehicle: Klucel (hydroxypropylcellulose) (HPC)"}, "[6]": {"conditions": "dose: 75.0 mg/kg/injection, schedule: Q01DX001 (ip), vehicle: saline"}}, "note": "The list shows only some results of the screen, not a fair sample: it is rich in T/C values a quarter to a half above the control, in often repeated tests (any T/C) and in doses without a T/C. Other doses and runs of a compound stand elsewhere. T/C gives the treated animals as a percentage of the vehicle group. Some entries give survivors of the animals treated and no T/C: the source files T/C as zero there, which appears to mark a toxic dose or a test without result, not a measured value. Some doses without a T/C left all or most animals alive at the check, yet need not have been tolerated: survival well below the control is almost never listed, so the zero probably covers shortened survival too. Survivors were counted at the toxicity check, usually on the fifth day, unless a day is given; later deaths do not show. Schedule codes are those of the source, taken here to give the interval after Q, in days (D) or hours (H), and the number of doses after X. Some schedules carry Z or #; the key to these is not given. For survival time, this PubChem deposit counts one and a half times the control or more as active, and values a quarter to a half above the control carry no call in these data; other NCI protocols may use other cut-offs."}
{"smiles": "CC=NCc1ccccc1", "values": [{"measurement": "survivor count", "setting": "dose: 200.0 mg/kg/injection, schedule: Q01DX009 (sc), vehicle: olive oil, sesame oil, peanut oil", "result": "2 of 6"}, {"measurement": "survivor count", "setting": "dose: 400.0 mg/kg/injection, schedule: Q04DX003 (sc), vehicle: olive oil, sesame oil, peanut oil", "result": "4 of 6"}]}
{"smiles": "O=C(Nc1ccccc1-c1ccc([N+](=O)[O-])cc1)c1ccc(-c2ccccc2)cc1", "values": [{"measurement": "survivor count", "setting": "dose: 100.0 mg/kg/injection, schedule: Q04DX003 (ip), vehicle: saline", "result": "6 of 6"}, {"measurement": "survivor count", "setting": "[1]", "result": "6 of 6"}]}
{"smiles": "O=NN1C(=O)N[C@@H]2[C@H]1CS[C@@H]2CCCCC(=O)O", "values": [{"measurement": "survivor count", "setting": "dose: 500.0 mg/kg/injection, schedule: Q01DX001 (ip), vehicle: carboxymethylcellulose (CMC)", "result": "6 of 6"}, {"measurement": "survivor count", "setting": "dose: 1000.0 mg/kg/injection, schedule: Q01DX001 (ip), vehicle: carboxymethylcellulose (CMC)", "result": "6 of 6"}]}
{"smiles": "COC1N(C2CC(O)C(CO)O2)C(=O)NC(=O)C1(F)Br", "note": "(stereo not drawn)", "values": [{"measurement": "T/C", "setting": "dose: 40.0 mg/kg/injection, schedule: Q01DX009 (ip), vehicle: saline", "result": "133 % of control"}]}
{"smiles": "CC(C)(CCCl)NCc1ccccc1", "values": [{"measurement": "survivor count", "setting": "[1]", "result": "3 of 6"}, {"measurement": "survivor count", "setting": "[2]", "result": "0 of 6"}]}
{"smiles": "CCCC(=O)CC(=O)C(F)(F)F.CCCC(=O)CC(=O)C(F)(F)F.CCCC(=O)CC(=O)C(F)(F)F.[Er]", "values": [{"measurement": "survivor count", "setting": "dose: 400.0 mg/kg/injection, schedule: Q01DX009 (ip), vehicle: other", "result": "3 of 6"}]}
{"smiles": "O=C(O)c1cc2cc(Cl)ccc2oc1=O", "values": [{"measurement": "survivor count", "setting": "[3]", "result": "2 of 4"}]}
{"smiles": "Cn1c(=O)c2[nH]c(Br)nc2n(C)c1=O", "values": [{"measurement": "survivor count", "setting": "[4]", "result": "3 of 6"}]}
{"smiles": "CN(C)/N=N/c1nc(Cc2ccccc2)[nH]c1C(N)=O", "values": [{"measurement": "T/C", "setting": "[4]", "result": "141 % of control"}]}
{"smiles": "CC(=O)Nc1ccc(NC(=O)NCCCl)cc1", "values": [{"measurement": "survivor count", "setting": "[5]", "result": "6 of 6"}]}
{"smiles": "Cc1nc(-c2ccc(N=Cc3ccc(N(CCOS(C)(=O)=O)CCOS(C)(=O)=O)cc3Cl)cc2)c(C)s1", "values": [{"measurement": "T/C", "setting": "dose: 50.0 mg/kg/injection, schedule: Q01DX009 (ip), vehicle: Klucel (hydroxypropylcellulose) (HPC)", "result": "135 % of control"}]}
{"smiles": "CCN(CC)CCCCCCNc1ccnc2cc(Cl)ccc12", "values": [{"measurement": "survivor count", "setting": "dose: 100.0 mg/kg/injection, schedule: Q01DX001 (ip), vehicle: carboxymethylcellulose (CMC)", "result": "4 of 4"}, {"measurement": "survivor count", "setting": "dose: 200.0 mg/kg/injection, schedule: Q01DX001 (ip), vehicle: carboxymethylcellulose (CMC)", "result": "1 of 4"}, {"measurement": "survivor count", "setting": "[3]", "result": "0 of 4"}]}
{"smiles": "CCOC(=O)C(=N\\Nc1ccccc1OC)/C(C)=N\\NC(N)=S", "values": [{"measurement": "survivor count", "setting": "[6]", "result": "6 of 6"}, {"measurement": "survivor count", "setting": "dose: 300.0 mg/kg/injection, schedule: Q01DX001 (ip), vehicle: acetone", "result": "0 of 6"}, {"measurement": "survivor count", "setting": "dose: 300.0 mg/kg/injection, schedule: Q01DX001 (ip), vehicle: saline", "result": "0 of 6"}]}
{"smiles": "C=CCNC(=S)Nc1cc(Cl)ccc1OC", "values": [{"measurement": "survivor count", "setting": "dose: 200.0 mg/kg/injection, schedule: Q01DX009 (ip), vehicle: Klucel (hydroxypropylcellulose) (HPC)", "result": "6 of 6"}]}
{"smiles": "CN(C1=CC(=O)C(N(C)C2CCCCC2)=CC1=O)C1CCCCC1", "values": [{"measurement": "survivor count", "setting": "dose: 30.0 mg/kg/injection, schedule: Q01DX009 (ip), vehicle: saline", "result": "4 of 6"}]}
{"smiles": "N#Cc1cnc(N)cc1N", "values": [{"measurement": "survivor count", "setting": "[5]", "result": "3 of 6"}]}
{"smiles": "CC(C)=CCN(CC=C(C)C)CCC(O)(Cc1ccccc1)c1ccccc1", "note": "(stereo not drawn)", "values": [{"measurement": "survivor count", "setting": "[5]", "result": "0 of 6"}]}
{"smiles": "CNCCN(C)CCN(C)Cc1ccc(OC)cc1", "values": [{"measurement": "survivor count", "setting": "dose: 400.0 mg/kg/injection, schedule: Q01DX009 (ip), vehicle: water", "result": "4 of 6"}]}
{"smiles": "CN=C(N/N=C(C)\\C=N\\NC(=NC)N(C)C)N(C)C", "values": [{"measurement": "survivor count", "setting": "dose: 480.0 mg/kg/injection, schedule: Q01DX Z (ip), vehicle: saline", "result": "1 of 6"}, {"measurement": "survivor count", "setting": "dose: 480.0 mg/kg/injection, schedule: Q01DX Z (oral), vehicle: saline", "result": "2 of 6"}]}
{"smiles": "Cc1[nH]c(=O)nc(Br)c1[N+](=O)[O-]", "values": [{"measurement": "survivor count", "setting": "[5]", "result": "2 of 6"}]}
{"smiles": "CC[C@H]1CN2CCc3cc(OC)c(OC)cc3[C@@H]2C[C@@H]1C[C@@H]1c2cc(OC)c(OC)cc2CCN1N=O", "values": [{"measurement": "survivor count", "setting": "[1]", "result": "6 of 6"}, {"measurement": "survivor count", "setting": "[2]", "result": "0 of 6"}]}
{"smiles": "C1CCC2[N-]CC3CCCCC3[N-]CC3CCCCC3[N-]CC3CCCCC3[N-]CC2C1.[Ni+2].[O-][Cl+3]([O-])([O-])O", "note": "(stereo not drawn)", "values": [{"measurement": "survivor count", "setting": "dose: 100.0 mg/kg/injection, schedule: Q04DX002 (ip), vehicle: saline with Tween-80", "result": "0 of 3"}, {"measurement": "survivor count", "setting": "dose: 200.0 mg/kg/injection, schedule: Q04DX002 (ip), vehicle: saline with Tween-80", "result": "0 of 3"}, {"measurement": "survivor count", "setting": "dose: 400.0 mg/kg/injection, schedule: Q04DX002 (ip), vehicle: saline with Tween-80", "result": "0 of 3"}]}
{"smiles": "Cc1ccc(N2C(=O)c3cc4ccccc4c(-c4ccccn4)c3C2=O)cc1", "values": [{"measurement": "survivor count", "setting": "dose: 200.0 mg/kg/injection, schedule: Q04DX003 (ip), vehicle: Klucel (hydroxypropylcellulose) (HPC)", "result": "3 of 6"}, {"measurement": "survivor count", "setting": "[5]", "result": "0 of 6"}]}
{"smiles": "COc1cc(/C=N/NC(=O)C[n+]2ccccc2)cc(OC)c1", "values": [{"measurement": "survivor count", "setting": "[1]", "result": "2 of 6"}, {"measurement": "survivor count", "setting": "[2]", "result": "0 of 6"}]}
{"smiles": "N#CC(=C=[N-])[n+]1ccccc1", "values": [{"measurement": "survivor count", "setting": "dose: 25.0 mg/kg/injection, schedule: Q01DX009 (ip), vehicle: saline", "result": "3 of 6"}, {"measurement": "survivor count", "setting": "[6]", "result": "2 of 6"}, {"measurement": "survivor count", "setting": "dose: 100.0 mg/kg/injection, schedule: Q01DX001 (ip), vehicle: saline", "result": "0 of 6"}, {"measurement": "survivor count", "setting": "dose: 200.0 mg/kg/injection, schedule: Q01DX001 (ip), vehicle: saline", "result": "0 of 6"}, {"measurement": "survivor count", "setting": "dose: 400.0 mg/kg/injection, schedule: Q01DX001 (ip), vehicle: saline", "result": "0 of 6"}]}
